# Measured values published in the M2OR odorant receptor database.
# The chains behind the UniProt entries cited, without tags or fusion partners. Where a name states a change or a piece, a line headed by the entry shows the natural chain unless it says otherwise.
# UniProt Q8NGP4: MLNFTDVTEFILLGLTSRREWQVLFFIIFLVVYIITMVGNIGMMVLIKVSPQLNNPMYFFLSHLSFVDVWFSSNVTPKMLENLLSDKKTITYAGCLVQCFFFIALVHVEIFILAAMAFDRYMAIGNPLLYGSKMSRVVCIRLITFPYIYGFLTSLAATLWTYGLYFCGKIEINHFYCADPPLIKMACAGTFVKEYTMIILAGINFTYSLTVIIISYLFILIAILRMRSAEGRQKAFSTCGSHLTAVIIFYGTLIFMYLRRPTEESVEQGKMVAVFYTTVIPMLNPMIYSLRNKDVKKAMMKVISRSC
# Only a part is listed here, and it is no random draw. The calls were merged from several studies; some rest on single wells.
# Molecular target: OR5M3 (Homo sapiens) (UniProt Q8NGP4)
# Conditions: stereoisomer not certain
# Outline: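 Assay methods differ from source to source, frequently being transient luciferase assays in mammalian cell lines. For each receptor–molecule pair, the label responsive (active) applies when the original authors judged the measured signal statistically different from baseline, and non-responsive (inactive) applies otherwise.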
structure (smiles),measurement,value
CCOc1cc(C=O)ccc1O,odorant receptor agonist call,inactive
